The values below come from paper doi:10.1101/2021.01.04.425243.

The chains behind the UniProt entries cited, without tags or fusion partners. Where a name states a change or a piece, a line headed by the entry shows the natural chain unless it says otherwise. A line that says so, or that is headed by a name, gives the form on record, which may keep a tag or linker.
FGFR2b (human (endogenous in T47D)) (P21802, form named): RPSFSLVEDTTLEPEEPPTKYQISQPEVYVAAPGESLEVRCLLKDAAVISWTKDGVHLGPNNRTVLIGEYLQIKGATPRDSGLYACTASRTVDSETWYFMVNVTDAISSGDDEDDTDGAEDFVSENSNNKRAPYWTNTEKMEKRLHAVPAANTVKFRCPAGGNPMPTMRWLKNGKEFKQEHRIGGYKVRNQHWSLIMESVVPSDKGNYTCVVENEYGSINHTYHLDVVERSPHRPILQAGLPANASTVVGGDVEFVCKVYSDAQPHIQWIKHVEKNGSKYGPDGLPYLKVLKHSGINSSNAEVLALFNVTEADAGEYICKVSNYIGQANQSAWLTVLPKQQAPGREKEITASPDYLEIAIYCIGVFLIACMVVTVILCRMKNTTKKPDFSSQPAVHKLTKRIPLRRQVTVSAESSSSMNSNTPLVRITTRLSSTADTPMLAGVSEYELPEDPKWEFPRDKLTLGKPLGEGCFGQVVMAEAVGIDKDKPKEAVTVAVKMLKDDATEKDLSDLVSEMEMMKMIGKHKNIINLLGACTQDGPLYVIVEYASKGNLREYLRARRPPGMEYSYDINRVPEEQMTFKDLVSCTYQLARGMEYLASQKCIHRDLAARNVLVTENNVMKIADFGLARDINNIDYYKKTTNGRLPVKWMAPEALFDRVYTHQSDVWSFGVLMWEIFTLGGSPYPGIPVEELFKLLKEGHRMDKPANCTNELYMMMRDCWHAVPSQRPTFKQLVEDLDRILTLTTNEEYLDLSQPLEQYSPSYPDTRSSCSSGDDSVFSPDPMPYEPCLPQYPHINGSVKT

The target in experiment [1] is FGFR2b (human (endogenous in T47D)) (UniProt P21802). The experiment can be described thus: condition: only in T693A-expressing cells stimulated for 40 min. with FGF10.
For experiment [2] the target is unchanged. The experiment can be described thus: co-IP.

No constants are given. Whether binding was seen depends on the method and setting. Binding seen in cells or lysates may run through a third protein. For some assays here: A result given as binding can be weak or reduced; the word gives no strength.

With RCP (from UniProt Q6WKZ4-3), the binding entry in experiment [1] is “no binding”; in experiment [2], “binds”.
